Here are results for one molecule from PMC2719804.

For one experiment, the target named is T1, Vav1-GFP (Vav1^WT) (UniProt P15498).
T1 sequence: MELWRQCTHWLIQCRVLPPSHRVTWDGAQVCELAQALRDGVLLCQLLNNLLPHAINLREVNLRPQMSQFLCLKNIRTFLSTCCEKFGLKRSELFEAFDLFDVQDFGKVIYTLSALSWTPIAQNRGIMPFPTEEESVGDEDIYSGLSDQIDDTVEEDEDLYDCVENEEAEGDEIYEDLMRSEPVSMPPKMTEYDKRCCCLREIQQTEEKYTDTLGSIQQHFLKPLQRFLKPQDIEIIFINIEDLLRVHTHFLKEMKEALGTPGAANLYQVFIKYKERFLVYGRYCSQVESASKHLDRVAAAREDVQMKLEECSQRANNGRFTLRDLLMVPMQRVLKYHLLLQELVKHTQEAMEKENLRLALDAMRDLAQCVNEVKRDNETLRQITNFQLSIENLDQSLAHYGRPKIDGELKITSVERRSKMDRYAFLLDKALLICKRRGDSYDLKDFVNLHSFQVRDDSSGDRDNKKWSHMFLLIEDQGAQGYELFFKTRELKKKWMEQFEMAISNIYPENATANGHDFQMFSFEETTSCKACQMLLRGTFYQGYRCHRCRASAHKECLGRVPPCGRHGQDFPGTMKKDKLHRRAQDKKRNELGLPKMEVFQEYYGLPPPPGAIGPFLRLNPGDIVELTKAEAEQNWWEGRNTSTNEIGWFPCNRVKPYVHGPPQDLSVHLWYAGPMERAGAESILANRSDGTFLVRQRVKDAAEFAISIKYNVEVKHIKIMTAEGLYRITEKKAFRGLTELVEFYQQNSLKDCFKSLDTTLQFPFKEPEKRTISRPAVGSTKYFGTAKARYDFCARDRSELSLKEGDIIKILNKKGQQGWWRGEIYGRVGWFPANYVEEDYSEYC
The experiment in a line: co-IP; Vav1 immunoprecipitated from anti-CD3-stimulated J.Vav1^WT and J.Vav1^GEF− cells (RIPA lysate); blots reprobed with anti-SLP-76 antibodies; non-stimulated cells as control.

In experiment [1] the target is T2, Vav1^GEF− (Vav1 L278Q fused to GFP) (UniProt P15498).
T2 sequence: T1 sequence with L278Q
The experiment is described as above.

Substitutions are numbered along the chain they refer to. No constants are given. Whether binding was seen depends on the method and setting. Binding seen in cells or lysates may run through a third protein. Some binding calls cover weakened binding; strength is not graded here. Sequences can lack the tags named with a protein.

B1: SLP-76 (protein, UniProt Q13094 1-533)
chain: MALRNVPFRSEVLGWDPDSLADYFKKLNYKDCEKAVKKYHIDGARFLNLTENDIQKFPKLRVPILSKLSQEINKNEERRSIFTRKPQVPRFPEETESHEEDNGGWSSFEEDDYESPNDDQDGEDDGDYESPNEEEEAPVEDDADYEPPPSNDEEALQNSILPAKPFPNSNSMYIDRPPSGKTPQQPPVPPQRPMAALPPPPAGRNHSPLPPPQTNHEEPSRSRNHKTAKLPAPSIDRSTKPPLDRSLAPFDREPFTLGKKPPFSDKPSIPAGRSLGEHLPKIQKPPLPPTTERHERSSPLPGKKPPVPKHGWGPDRRENDEDDVHQRPLPQPALLPMSSNTFPSRSTKPSPMNPLPSSHMPGAFSESNSSFPQSASLPPYFSQGPSNRPPIRAEGRNFPLPLPNKPRPPSPAEEENSLNEEWYVSYITRPEAEAALRKINQDGTFLVRDSSKKTTTNPYVLMVLYKDKVYNIQIRYQKESQVYLLGTGLRGKEDFLSVSDIIDYFRKMPLLLIDGKNRGSRYQCTLTHAAGYP
As for B1, the binding entry (with Vav1-GFP (Vav1^WT); in experiment [1]) was “binds” in each case.
